According to US20220403391:
The exact form of at least one protein or probe is not confirmed. Where cells or extracts were used, other partners may take part. The comparison behind a weaker result is the experiment's own reference, which may not be listed here.

System: CD3 (T-cell receptor CD3 complex) (Homo sapiens)
Assay: flow cytometry
Details: dose-dependent on Jurkat, signal below anti-CD3 monomer, Ramos binding strongly reduced, 37 C, protein on the cell surface, protein details: endogenous on Jurkat cells (ATCC TIB-152), label: 5'-biotin-TEG
[1] = 2'-F RNA in A10 part, triazole click linkage between A10 3' end and DNA 5' end
[2] = 2'-F RNA, triazole click linkage between A10 3' end and partner 5' end

| Sequence | binding result [1] | binding result [2] |
| --- | --- | --- |
| GGGAGGACGAUGCGGAUCAGCCAUGUUUACGUCACUCCUTACCGCGGGGATTGGCTCCGGGCCTGGCGTCGTAATCTGA [A10xCELTIC_19s] | binds more weakly |  |
| GGGAGGACGAUGCGGAUCAGCCAUGUUUACGUCACUCCUTTTCCGGGTGGGGGTTTGGCACCGGGCCTGGCGCAGGGATTCG [A10xCELTIC_1s] | binds more weakly |  |
| GGGAGGACGAUGCGGAUCAGCCAUGUUUACGUCACUCCUUAUAGACUUUAAUGUCUCAUUUUCGCAGCGAUUCUUGUUUAUUUAACAUA [A10xARACD3-3700006] |  | binds more weakly |
| GGGAGGACGAUGCGGAUCAGCCAUGUUUACGUCACUCCUUCUAAGCAAUAUUGUUUGCUUUUGCAGCGAUUCUGUUUCGAUAUAUUA [A10xARACD3-0010209] |  | binds more weakly |
